Results from publication PMC11300717.
These are yes or no findings as the source states them, for the method shown. Binding seen in cells or lysates may run through a third protein. Some results given as binding are weak or reduced against the parent protein; the word gives no strength.

The chains behind the UniProt entries cited, without tags or fusion partners. Where a name states a change or a piece, a line headed by the entry shows the natural chain unless it says otherwise. A line that says so, or that is headed by a name, gives the form on record, which may keep a tag or linker.
UniProt Q15003: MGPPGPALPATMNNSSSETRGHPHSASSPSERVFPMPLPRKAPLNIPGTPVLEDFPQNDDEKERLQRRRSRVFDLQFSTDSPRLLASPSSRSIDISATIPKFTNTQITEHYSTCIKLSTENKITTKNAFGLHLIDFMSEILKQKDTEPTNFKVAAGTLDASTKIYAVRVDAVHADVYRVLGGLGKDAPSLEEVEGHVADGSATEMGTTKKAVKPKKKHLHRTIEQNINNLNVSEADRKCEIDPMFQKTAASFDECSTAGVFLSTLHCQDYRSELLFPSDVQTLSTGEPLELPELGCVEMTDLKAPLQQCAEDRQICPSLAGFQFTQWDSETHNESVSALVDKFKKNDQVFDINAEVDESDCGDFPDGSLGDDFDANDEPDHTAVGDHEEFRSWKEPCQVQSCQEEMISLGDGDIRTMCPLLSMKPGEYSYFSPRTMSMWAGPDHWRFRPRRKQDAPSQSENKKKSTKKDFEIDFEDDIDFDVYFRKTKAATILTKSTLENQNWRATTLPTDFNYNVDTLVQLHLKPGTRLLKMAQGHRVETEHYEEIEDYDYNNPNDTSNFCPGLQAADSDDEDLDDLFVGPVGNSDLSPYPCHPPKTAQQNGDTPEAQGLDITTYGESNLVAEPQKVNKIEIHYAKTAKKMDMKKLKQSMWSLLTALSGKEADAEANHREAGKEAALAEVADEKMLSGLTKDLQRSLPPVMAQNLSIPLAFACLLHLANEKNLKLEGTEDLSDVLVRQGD
UniProt P19474: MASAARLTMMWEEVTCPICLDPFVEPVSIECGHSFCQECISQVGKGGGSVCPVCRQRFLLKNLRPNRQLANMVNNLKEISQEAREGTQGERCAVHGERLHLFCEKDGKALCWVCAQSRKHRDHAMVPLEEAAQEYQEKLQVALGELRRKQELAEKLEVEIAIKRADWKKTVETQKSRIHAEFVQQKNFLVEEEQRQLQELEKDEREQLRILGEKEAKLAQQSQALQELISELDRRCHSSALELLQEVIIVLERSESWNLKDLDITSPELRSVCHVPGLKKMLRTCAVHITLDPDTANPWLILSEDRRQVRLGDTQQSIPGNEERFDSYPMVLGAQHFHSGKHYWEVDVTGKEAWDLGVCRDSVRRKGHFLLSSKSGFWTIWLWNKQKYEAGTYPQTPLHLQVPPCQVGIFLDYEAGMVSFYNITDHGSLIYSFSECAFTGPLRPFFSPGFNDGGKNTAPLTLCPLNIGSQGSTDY
TRIM21 ΔB-box (91-128AA) (P19474, form named): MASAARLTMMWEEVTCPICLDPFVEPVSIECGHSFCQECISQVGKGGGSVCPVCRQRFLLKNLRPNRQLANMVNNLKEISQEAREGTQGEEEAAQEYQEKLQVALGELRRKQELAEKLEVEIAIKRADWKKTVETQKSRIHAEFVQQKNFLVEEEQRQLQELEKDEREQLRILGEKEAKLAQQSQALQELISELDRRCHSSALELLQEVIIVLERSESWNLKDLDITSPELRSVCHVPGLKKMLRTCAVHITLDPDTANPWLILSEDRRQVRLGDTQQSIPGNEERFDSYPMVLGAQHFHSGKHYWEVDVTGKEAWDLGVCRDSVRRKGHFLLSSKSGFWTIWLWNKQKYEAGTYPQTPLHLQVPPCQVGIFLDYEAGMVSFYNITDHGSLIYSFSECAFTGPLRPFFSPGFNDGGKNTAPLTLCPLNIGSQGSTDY
TRIM21 ΔCC (130-255AA) (P19474, form named): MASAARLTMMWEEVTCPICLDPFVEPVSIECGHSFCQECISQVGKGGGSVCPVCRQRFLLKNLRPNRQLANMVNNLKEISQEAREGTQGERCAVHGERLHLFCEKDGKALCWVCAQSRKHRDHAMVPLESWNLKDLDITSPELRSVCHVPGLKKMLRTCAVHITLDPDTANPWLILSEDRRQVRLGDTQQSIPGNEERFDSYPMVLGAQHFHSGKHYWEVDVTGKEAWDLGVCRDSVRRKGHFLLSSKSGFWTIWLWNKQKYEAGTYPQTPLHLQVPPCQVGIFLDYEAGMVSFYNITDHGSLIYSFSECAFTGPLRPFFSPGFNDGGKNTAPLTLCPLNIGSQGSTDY
TRIM21 ΔRING (15-58AA) (P19474, form named): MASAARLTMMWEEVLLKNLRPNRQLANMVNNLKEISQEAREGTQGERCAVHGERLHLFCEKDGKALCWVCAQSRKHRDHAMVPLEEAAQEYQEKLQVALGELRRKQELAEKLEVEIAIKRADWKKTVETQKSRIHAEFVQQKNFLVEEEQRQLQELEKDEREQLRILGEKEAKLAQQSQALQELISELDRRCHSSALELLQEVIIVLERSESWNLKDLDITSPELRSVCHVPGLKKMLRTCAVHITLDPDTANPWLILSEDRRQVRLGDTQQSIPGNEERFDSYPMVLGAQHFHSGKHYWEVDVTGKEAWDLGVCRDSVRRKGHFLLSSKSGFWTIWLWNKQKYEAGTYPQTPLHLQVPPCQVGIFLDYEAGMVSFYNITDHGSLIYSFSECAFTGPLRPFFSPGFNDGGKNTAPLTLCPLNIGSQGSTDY

How the values were obtained:
Flag-NCAPH = Flag-NCAPH (UniProt Q15003); experiment: co-IP; HEK 293T cells cotransfected with HA-TRIM21 or its domain mutants and Flag-NCAPH; precipitated with Flag antibody, western blot
[1] = target: Tripartite motif-containing protein 21 (TRIM21) (human (endogenous in HeLa)) (UniProt P19474); experiment: co-IP; endogenous proteins, cell lysate, TRIM21 antibody as bait, protein A agarose beads, 4 °C overnight, western blot
HA-TRIM21 = HA-TRIM21 (UniProt P19474); experiment: co-IP; HEK 293T cells cotransfected with HA-TRIM21 or its domain mutants and Flag-NCAPH; precipitated with HA antibody, western blot
TRIM21 ΔCC (130-255AA) = TRIM21 ΔCC (130-255AA) (UniProt P19474); experiment: as above
[2] = target: TRIM21 ΔPRY/SPRY (286-475AA) (UniProt P19474); experiment: as above
TRIM21 ΔRING (15-58AA) = TRIM21 ΔRING (15-58AA) (UniProt P19474); experiment: as above
TRIM21 ΔB-box (91-128AA) = TRIM21 ΔB-box (91-128AA) (UniProt P19474); experiment: as above
[3] = target: NCAPH (non-SMC condensin I complex subunit H) (human (endogenous in HeLa)) (UniProt Q15003); experiment: co-IP; endogenous proteins, cell lysate, NCAPH antibody as bait, protein A agarose beads, 4 °C overnight, western blot

For “TRIM21 ΔB-box (91-128AA) (from UniProt P19474 1-475)”, the binding (Flag-NCAPH) was “binds”.
With “TRIM21 ΔCC (130-255AA) (from UniProt P19474 1-475)” the binding (Flag-NCAPH) was “binds weakly”.
With “NCAPH (non-SMC condensin I complex subunit H) (from UniProt Q15003 1-741)” the binding [1] was “binds”.
For Flag-NCAPH (from UniProt Q15003 1-741), the binding (HA-TRIM21) was “binds”, the binding (TRIM21 ΔCC (130-255AA)) was “binds weakly” and the binding [2] was “binds weakly”. For the same substance, the binding (TRIM21 ΔRING (15-58AA)) was “binds” and the binding (TRIM21 ΔB-box (91-128AA)) was “binds”.
In the case of “TRIM21 ΔPRY/SPRY (286-475AA) (from UniProt P19474 1-475)”, the binding (Flag-NCAPH) is reported as “binds weakly”.
For “Tripartite motif-containing protein 21 (TRIM21) (from UniProt P19474 1-475)”, the binding [3] was “binds”.
In the case of HA-TRIM21 (from UniProt P19474 1-475), the binding (Flag-NCAPH) is reported as “binds”.
“TRIM21 ΔRING (15-58AA) (from UniProt P19474 1-475)” was tested, and the binding (Flag-NCAPH) was “binds”.
